The record followed here is PMC5522482.

Results are given in words; binding and its absence hold for the method and conditions named. Binding can be weak; no strength is given.

For test [1], the target named is T1, Recombinant human IL-37 (human) (UniProt Q9NZH6).
T1 sequence: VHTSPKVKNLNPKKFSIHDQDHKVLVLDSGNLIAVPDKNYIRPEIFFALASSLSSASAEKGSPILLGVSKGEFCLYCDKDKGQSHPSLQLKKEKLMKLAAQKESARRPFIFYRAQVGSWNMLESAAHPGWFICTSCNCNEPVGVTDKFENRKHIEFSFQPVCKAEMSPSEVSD
Description: pull-down; recombinant TGF-β1 (100 nmol/l) mixed with recombinant IL-37 (50 nmol/l) in RIPA buffer, applied to anti-IL-37 antibody Dynabeads, room temperature, 20 min; Western blot; both purified. Background: In western blotting, separated proteins are transferred to a membrane and probed.

Test [2] concerns the target Recombinant human TGF-β1 (human). As to the kind of experiment: ELISA; TGF-β1 (2 μg/ml) coated on ELISA plates, blocked with 2% BSA; serial dilution of IL-37 at 4 °C overnight; bound IL-37 detected with biotinylated IL-37 antibody and streptavidin-HRP; both purified.

As to Recombinant human TGF-β1 (ligand), the binding result in test [1] is on record as “binds”.

B1: Recombinant human IL-37 (ligand, UniProt Q9NZH6 46-218)
chain: T1 sequence
As for B1, in test [2], the binding result is “binds”.
